Measurements as given in publication PMC9896144, “A “grappling hook” interaction connects self-assembly and chaperone activity of Nucleophosmin 1” (PNAS Nexus, 2023).
These are yes or no findings as the source states them, for the method shown. Some results given as binding are weak or reduced against the parent protein; the word gives no strength.

Amino acid sequences for entries named in this document (tags omitted). A change or cut given only in a name is not applied to a line headed by its entry. Residues count along the entry.
UniProt P06748: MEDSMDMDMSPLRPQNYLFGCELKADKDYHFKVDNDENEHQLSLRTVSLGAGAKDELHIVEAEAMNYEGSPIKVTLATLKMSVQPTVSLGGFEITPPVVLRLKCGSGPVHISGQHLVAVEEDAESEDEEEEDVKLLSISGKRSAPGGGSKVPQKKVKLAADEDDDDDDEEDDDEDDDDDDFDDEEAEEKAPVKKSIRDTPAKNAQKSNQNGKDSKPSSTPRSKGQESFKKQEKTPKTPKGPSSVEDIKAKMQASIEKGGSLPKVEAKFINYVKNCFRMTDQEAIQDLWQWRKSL
NPM1_(240), the NTD and the entire IDR of NPM1: residues 1-240 of P06748
NPM1_(188), the NTD and the acidic regions of the IDR of NPM1: residues 1-188 of P06748

Legend:
[1] = target: NPM1_(188), the NTD and the acidic regions of the IDR of NPM1 (human) (UniProt P06748); experiment: native MS; mixture of NPM1_188 and NPM1_240-294 (Fig. S6a); both purified
[2] = target: NPM1_(240-294), the isolated C-terminal nucleotide-binding domain (CTD) of NPM1 (human) (UniProt P06748); experiment: native MS; each NPM1 variant alone; nESI with collision-induced dissociation, collision voltages 25 to 75 V; both purified
[3] = target: NPM1_(240), the NTD and the entire IDR of NPM1 (human) (UniProt P06748); experiment: other fluorescence titration; intrinsic fluorescence of tryptophans 288 and 290 of NPM1_240-294; equimolar amounts of partner added (single point), n = 6; also with quadruplex DNA; both purified

- binding [1]: binds weakly
- binding [2]: no binding
- binding [3]: binds weakly
Substance: NPM1_(240-294), the isolated C-terminal nucleotide-binding domain (CTD) of NPM1 (from UniProt P06748 240-294) (domain or fragment)
